This is one part of the list. Calls are pooled over several reports, among them a noisy single-well screen.

The first assay relates to T1, O2AE1.
T1 sequence (whole entry): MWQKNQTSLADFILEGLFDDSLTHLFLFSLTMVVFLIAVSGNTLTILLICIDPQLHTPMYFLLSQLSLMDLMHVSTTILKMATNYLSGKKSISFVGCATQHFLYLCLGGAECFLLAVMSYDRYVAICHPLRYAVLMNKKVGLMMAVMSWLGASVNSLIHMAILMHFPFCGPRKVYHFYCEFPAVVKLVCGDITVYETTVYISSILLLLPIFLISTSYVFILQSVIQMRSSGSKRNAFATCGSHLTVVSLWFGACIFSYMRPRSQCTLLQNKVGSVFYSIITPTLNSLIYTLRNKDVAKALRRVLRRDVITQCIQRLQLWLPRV
To be noted: stereoisomer not certain. An outline of the steps:
(§1)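 Assay methods differ from source to source, frequently being transient luciferase assays in mammalian cell lines. For each receptor–molecule pair, the label responsive (active) applies when the original authors judged the measured signal statistically different from baseline, and non-responsive (inactive) applies otherwise.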
For the compound `CC(C)C(=O)O`, the “odorant receptor agonist call” value is “inactive”.
Turning to `CC12C=CCC1C1CCC3CC(=O)CCC3(C)C1CC2` (stereo unspecified), the “odorant receptor agonist call” value is “inactive”.
As for `CC(=O)OC(C)(C)C1CC=C(C)CC1` (stereo unspecified), the “odorant receptor agonist call” value is “inactive”.
Same read-out and setting: under `COc1ccccc1O` stands “inactive”; under `CC(C)=CCCC(C)=CC=O`, “inactive”; under `CCCC(=O)O`, “inactive”.
Same read-out and setting: with `CCCCCCOC(=O)CCC` the entry was “inactive”.
In the case of `CC(=O)OCC=C(C)CCC=C(C)C`, the “odorant receptor agonist call” value was “inactive”.
The same measure, in the same setting: under `C=CC(C)(O)CCC=C(C)C` (stereo unspecified) stands “inactive”.
The same measure, in the same setting: with `C=CCc1ccc(OC)c(OC)c1` the entry was “inactive”; with `CCC1(O)C2(C)CCC(C2)C1(C)C` (stereo unspecified), “inactive”.
Still for that read-out and setting: with `CCCCCCCC=CC=O` the entry was “inactive”; with `COc1cc(C=O)ccc1O`, “inactive”.
With `CC12CCC(CC1)C(C)(C)O2`, the “odorant receptor agonist call” value was “inactive”.
For `CC(C)(C)c1ccc(CCC=O)cc1`, the “odorant receptor agonist call” value was “inactive”.
Same read-out and setting: with `CC1COCc2cc3c(cc21)C(C)(C)C(C)C3(C)C` (stereo unspecified) the entry was “active”; with `CC(C)C=O`, “inactive”.
The same measure, in the same setting: under `CC(C)CCC(=O)O` stands “inactive”.
Still for that read-out and setting: under `CCC=CCCO` stands “inactive”; under `CC(=O)C(C)=O`, “inactive”; under `CC(=O)OC1CC2CCC1(C)C2(C)C` (stereo unspecified), “inactive”.
As to `COc1cc(C)ccc1O`, the “odorant receptor agonist call” value was “inactive”.
Still for that read-out and setting: under `CCCCCCCC=O` stands “inactive”; under `CCCCCCCCOC(C)=O`, “inactive”.

The subject of a further assay is T2, O2AG2.
T2 sequence (whole entry): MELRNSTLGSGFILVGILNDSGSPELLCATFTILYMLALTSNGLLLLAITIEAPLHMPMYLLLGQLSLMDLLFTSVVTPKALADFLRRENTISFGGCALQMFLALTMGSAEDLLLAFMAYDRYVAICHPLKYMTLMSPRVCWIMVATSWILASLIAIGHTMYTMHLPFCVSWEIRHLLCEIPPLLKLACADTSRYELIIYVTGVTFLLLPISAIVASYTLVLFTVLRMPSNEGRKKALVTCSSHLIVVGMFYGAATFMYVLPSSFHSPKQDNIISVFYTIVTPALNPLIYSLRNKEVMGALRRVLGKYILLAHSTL
To be noted: stereoisomer not certain. An outline of the steps: as §1
As for `CC(C)C(=O)O`, the “odorant receptor agonist call” value is “inactive”.
The same measure, in the same setting: with `CC12C=CCC1C1CCC3CC(=O)CCC3(C)C1CC2` (stereo unspecified) the entry was “inactive”; with `CC(=O)OC(C)(C)C1CC=C(C)CC1` (stereo unspecified), “inactive”.
On the same count and under the same terms, with `COc1ccccc1O` the entry was “inactive”.
Still for that read-out and setting: under `CC(C)=CCCC(C)=CC=O` stands “inactive”.
For `CCCC(=O)O`, the “odorant receptor agonist call” value is “inactive”.
On the same count and under the same terms, with `CCCCCCOC(=O)CCC` the entry was “inactive”.
Still for that read-out and setting: with `CC(=O)OCC=C(C)CCC=C(C)C` the entry was “inactive”; with `C=CC(C)(O)CCC=C(C)C` (stereo unspecified), “inactive”; with `C=CCc1ccc(OC)c(OC)c1`, “inactive”.
For the compound `CCC1(O)C2(C)CCC(C2)C1(C)C` (stereo unspecified), the “odorant receptor agonist call” value was “inactive”.
Still for that read-out and setting: under `CCCCCCCC=CC=O` stands “inactive”; under `COc1cc(C=O)ccc1O`, “inactive”; under `CC12CCC(CC1)C(C)(C)O2`, “inactive”.
Same read-out and setting: with `CC(C)(C)c1ccc(CCC=O)cc1` the entry was “inactive”; with `CC1COCc2cc3c(cc21)C(C)(C)C(C)C3(C)C` (stereo unspecified), “active”.
Same read-out and setting: with `CC(C)C=O` the entry was “inactive”; with `CC(C)CCC(=O)O`, “inactive”; with `CCC=CCCO`, “inactive”.
With `CC(=O)C(C)=O`, the “odorant receptor agonist call” value is “inactive”.
Consider `CC(=O)OC1CC2CCC1(C)C2(C)C` (stereo unspecified), for which the “odorant receptor agonist call” value is “inactive”.
The same measure, in the same setting: under `COc1cc(C)ccc1O` stands “inactive”; under `CCCCCCCC=O`, “inactive”; under `CCCCCCCCOC(C)=O`, “inactive”.

The subject of another assay is T3, O2AJ1.
T3 sequence (whole entry): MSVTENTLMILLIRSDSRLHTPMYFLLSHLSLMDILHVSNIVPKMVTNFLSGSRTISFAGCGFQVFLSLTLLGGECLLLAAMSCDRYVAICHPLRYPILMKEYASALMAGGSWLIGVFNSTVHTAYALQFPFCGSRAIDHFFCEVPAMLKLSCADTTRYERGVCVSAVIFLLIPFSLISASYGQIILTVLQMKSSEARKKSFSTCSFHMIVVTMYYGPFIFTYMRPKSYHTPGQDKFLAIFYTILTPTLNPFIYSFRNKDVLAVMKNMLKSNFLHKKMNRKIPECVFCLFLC
The conditions noted are these: stereoisomer not certain. In outline: as §1
`CC(C)C(=O)O`: the “odorant receptor agonist call” value was “inactive”.
On the same count and under the same terms, under `CC12C=CCC1C1CCC3CC(=O)CCC3(C)C1CC2` (stereo unspecified) stands “inactive”.
The same measure, in the same setting: with `CC(=O)OC(C)(C)C1CC=C(C)CC1` (stereo unspecified) the entry was “inactive”.
The same measure, in the same setting: under `COc1ccccc1O` stands “inactive”.
`CC(C)=CCCC(C)=CC=O`: the “odorant receptor agonist call” value is “inactive”.
Still for that read-out and setting: under `CCCC(=O)O` stands “inactive”; under `CCCCCCOC(=O)CCC`, “inactive”.
For `CC(=O)OCC=C(C)CCC=C(C)C`, the “odorant receptor agonist call” value was “inactive”.
Same read-out and setting: under `C=CC(C)(O)CCC=C(C)C` (stereo unspecified) stands “inactive”; under `C=CCc1ccc(OC)c(OC)c1`, “inactive”.
Still for that read-out and setting: with `CCC1(O)C2(C)CCC(C2)C1(C)C` (stereo unspecified) the entry was “inactive”; with `CCCCCCCC=CC=O`, “inactive”; with `COc1cc(C=O)ccc1O`, “inactive”.
`CC12CCC(CC1)C(C)(C)O2`: the “odorant receptor agonist call” value was “inactive”.
Take `CC(C)(C)c1ccc(CCC=O)cc1`: the “odorant receptor agonist call” value was “inactive”.
Still for that read-out and setting: under `CC1COCc2cc3c(cc21)C(C)(C)C(C)C3(C)C` (stereo unspecified) stands “active”.
On to `CC(C)C=O`, for which the “odorant receptor agonist call” value is “inactive”.
The same measure, in the same setting: with `CC(C)CCC(=O)O` the entry was “inactive”; with `CCC=CCCO`, “inactive”.
Same read-out and setting: under `CC(=O)C(C)=O` stands “inactive”.
Same read-out and setting: under `CC(=O)OC1CC2CCC1(C)C2(C)C` (stereo unspecified) stands “inactive”; under `COc1cc(C)ccc1O`, “inactive”.
For `CCCCCCCC=O`, the “odorant receptor agonist call” value was “inactive”.
As to `CCCCCCCCOC(C)=O`, the “odorant receptor agonist call” value is “inactive”.

Another assay deals with T4, O2AK2.
T4 sequence (whole entry): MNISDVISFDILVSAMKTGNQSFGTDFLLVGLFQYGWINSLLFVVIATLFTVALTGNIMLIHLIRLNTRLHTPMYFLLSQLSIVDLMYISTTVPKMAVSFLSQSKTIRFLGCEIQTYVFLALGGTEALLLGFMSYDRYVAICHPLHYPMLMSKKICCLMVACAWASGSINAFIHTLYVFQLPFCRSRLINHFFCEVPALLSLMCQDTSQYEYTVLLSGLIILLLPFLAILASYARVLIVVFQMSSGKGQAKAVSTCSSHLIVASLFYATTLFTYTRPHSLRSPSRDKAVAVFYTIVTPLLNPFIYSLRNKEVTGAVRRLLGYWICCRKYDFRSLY
To be noted: stereoisomer not certain. An outline of the steps: as §1
In the case of `CC(C)C(=O)O`, the “odorant receptor agonist call” value was “inactive”.
Regarding `CC12C=CCC1C1CCC3CC(=O)CCC3(C)C1CC2` (stereo unspecified), the “odorant receptor agonist call” value was “inactive”.
Still for that read-out and setting: with `CC(=O)OC(C)(C)C1CC=C(C)CC1` (stereo unspecified) the entry was “inactive”.
The same measure, in the same setting: under `COc1ccccc1O` stands “inactive”; under `CC(C)=CCCC(C)=CC=O`, “inactive”.
The same measure, in the same setting: with `CCCC(=O)O` the entry was “inactive”.
In the case of `CCCCCCOC(=O)CCC`, the “odorant receptor agonist call” value was “inactive”.
Consider `CC(=O)OCC=C(C)CCC=C(C)C`, for which the “odorant receptor agonist call” value is “inactive”.
As to `C=CC(C)(O)CCC=C(C)C` (stereo unspecified), the “odorant receptor agonist call” value was “inactive”.
Consider `C=CCc1ccc(OC)c(OC)c1`, for which the “odorant receptor agonist call” value is “inactive”.
As to `CCC1(O)C2(C)CCC(C2)C1(C)C` (stereo unspecified), the “odorant receptor agonist call” value is “inactive”.
The same measure, in the same setting: under `CCCCCCCC=CC=O` stands “inactive”.
With `COc1cc(C=O)ccc1O`, the “odorant receptor agonist call” value was “inactive”.
Still for that read-out and setting: with `CC12CCC(CC1)C(C)(C)O2` the entry was “inactive”.
Same read-out and setting: with `CC(C)(C)c1ccc(CCC=O)cc1` the entry was “inactive”.
On the same count and under the same terms, under `CC1COCc2cc3c(cc21)C(C)(C)C(C)C3(C)C` (stereo unspecified) stands “active”; under `CC(C)C=O`, “inactive”.
As for `CC(C)CCC(=O)O`, the “odorant receptor agonist call” value is “inactive”.
On the same count and under the same terms, with `CCC=CCCO` the entry was “inactive”; with `CC(=O)C(C)=O`, “inactive”.
On the same count and under the same terms, with `CC(=O)OC1CC2CCC1(C)C2(C)C` (stereo unspecified) the entry was “inactive”.
For the compound `COc1cc(C)ccc1O`, the “odorant receptor agonist call” value was “inactive”.
Still for that read-out and setting: under `CCCCCCCC=O` stands “inactive”.
Still for that read-out and setting: with `CCCCCCCCOC(C)=O` the entry was “inactive”.

For the origin of these results see the M2OR odorant receptor database.
